The campaign covered roughly 330,000 compounds. About 7,700 (2.3%) were called active. The shares of active, inactive and inconclusive entries below differ from those in the screen. The call rests on the fitted dose curve; in most records, active means well fitted inhibition curve with a large enough effect; inconclusive means small, poorly fitted or top-dose-only effect, or effect the other way; inactive means flat fitted curve, though single readings scatter. Potencies beside an inconclusive call are fits to weak or partial responses and may not hold up.
Test: qHTS screen for small molecules that inhibit ELG1-dependent DNA repair in human embryonic kidney (HEK293T) cells expressing luciferase-tagged ELG1; further: nearly all actives have a fitted effect of over 55% in size
Settings: HEK293T ELG1-luciferase reporter, luminescence, 16 h, DNA damage induced by 5-fluorouridine; activity change, negative = inhibition: at 46.1 µM (top of the series)
Procedure, shortened: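 In this reporter screen, reduction of luminescence relative to DMSO vehicle indicated activity. Compounds and 5-fluorouridine were added together to 2,000 cells per well, incubated for 16 hr at 37 °C, then developed with ONE-Glo.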
On the % scale 0 is the no-effect control and ±100 the full control effect; potency means the concentration at half of the fitted maximal effect.

| Structure (SMILES) | Potency | activity change, negative = inhibition |
| --- | --- | --- |
| Cn1c(=O)c2c(nc(NCc3ccc4c(c3)OCO4)n2Cc2ccccc2F)n(C)c1=O | inconclusive: 23.1 µM [inhibitor, single point] | – |
| CNc1nc(SCc2ccc(C)cc2)nc2c1CCCC2 | – | inactive: 6.2% |
| CCOc1ccc(C(=O)COC(=O)Cc2n[nH]c(=O)c3ccccc23)cc1 | inconclusive: 5.17 µM [inhibitor, single point] | – |
| O=C(Nc1ccncc1)c1ccc(Cl)c(S(=O)(=O)N2CCCC2)c1 | – | inactive: -15.3% |
| O=C(N[C@@H](Cc1ccccc1)C(=O)NC1CC1)c1ccc(Cl)cc1 | inconclusive: 16.4 µM [activator, single point] | – |
| NC(=O)COC(=O)c1cccnc1Nc1ccccc1F | inconclusive: 25.9 µM [activator, partial curve, poor fit] | – |
| COc1cccc(NC(=O)CN(C)C(C)C(=O)Nc2ccc(C#N)cc2)c1 (stereo unspecified) | inconclusive: 20.6 µM [inhibitor, single point] | – |
| CCc1nc(N2CCN(CC(=O)NCC3CCCO3)CC2)c(C#N)c2c1COC(C)(C)C2 (stereo unspecified) | inconclusive: 20.6 µM [inhibitor, partial curve, poor fit] | – |
| O=C(Nc1ccc(S(=O)(=O)N2CCCCCC2)cc1)c1ccco1 | inconclusive: 6.51 µM [activator, partial curve] | – |
| CCCCOCCCn1c(-c2ccco2)nc2nc3ccccc3nc21 | inconclusive: 29.1 µM [inhibitor, single point] | – |
| CCN(CC(=O)Nc1ccccc1OC)CC(=O)Nc1ccccc1-c1ccccc1 | inconclusive: 20.6 µM [inhibitor, single point] | – |
| CCCn1c(SCc2ccc(Cl)cc2)nc2c1c(=O)[nH]c(=O)n2C | – | inactive: -16.3% |
| Cc1[nH]n(-c2ccccc2)c(=O)c1C(C[N+](=O)[O-])c1ccc(F)cc1 (stereo unspecified) | – | inactive: -14.5% |
| CCC(C)NC(=O)c1cn(CC)c2cc(N3CCN(C(=O)c4ccco4)CC3)c(F)cc2c1=O (stereo unspecified) | active: 20.6 µM | – |
| COc1cc(C(CC(=O)N2CCN(c3ccccc3)CC2)c2c(OC)cc(OC)c3ccc(=O)oc23)cc(OC)c1OC (stereo unspecified) | – | inactive: 12% |
| CCOC(=O)c1cnn(-c2ccc(C)cc2)c1N | inconclusive: 18.4 µM [activator, partial curve] | – |
| O=C(Nc1cccc(-c2cnc3ccccc3n2)c1)c1cccc(NC(=O)c2ccco2)c1 | active: 10.3 µM | – |
| Cc1ccc(CNC(=O)c2ccc(N3CCC4(CC3)CC(c3cccc(Br)c3)=NO4)c(N)c2)cc1 | – | inactive: -17.1% |
| CCCCCCCN=CC1=C(O)CC(c2ccccc2)CC1=O (stereo unspecified) | – | inactive: -11.5% |
| CC(C)(C)c1nc2cc(Cl)c([N+](=O)[O-])cc2o1 | – | inactive: 17% |
| CC1(C)CCC(=O)N2CC[C@H]3C[C@H](OC(=O)Nc4ccccc4)C[C@@H]1[C@H]32 | inconclusive: 25.9 µM [activator, single point] | – |
| CCCSc1nc2c(c(=O)[nH]c(=O)n2C)n1CCc1ccccc1 | – | inactive: -5.55% |
| CCC(=O)N(CCc1ccccc1)Cc1cc2cccc(C)c2[nH]c1=O | inconclusive: 29.1 µM [inhibitor, single point] | – |
| O=C(NCCc1c[nH]c2ccccc12)c1cc2sccc2n1Cc1ccccc1 | inconclusive: 29.1 µM [inhibitor, single point] | – |

| Structure (SMILES) | Potency | activity change, negative = inhibition |
| --- | --- | --- |
| CCC(C)[C@H](NC(=O)[C@H](Cc1ccccc1)n1c(=O)[nH]c2ccccc2c1=O)C(=O)NCC1CCC(C(=O)O)CC1 (stereo partly specified) | inconclusive: 9.2 µM [inhibitor, partial curve, poor fit] | – |
| Cc1cccc(OCCn2c(=O)n(C)c3ccccc32)c1 | inconclusive: 4.11 µM [activator, partial curve] | – |
| Cc1ccc(C)c(Sc2ccc(NC(=O)CCN3C(=O)NC4(CCCC4)C3=O)cc2)c1 | inconclusive: 23.1 µM [inhibitor, single point] | – |
| O=C(NCC1CCCO1)c1nn2cccnc2c1Cl (stereo unspecified) | inconclusive: 20.6 µM [activator, single point] | – |
| CCC1(C)Cc2ccccc2-c2nc3n(c(=O)c21)CCS3 (stereo unspecified) | – | inactive: 14.7% |
| O=C(O)c1cc(-c2cccc(Cl)c2)nc2nc(N3CCCCC3)sc12 | – | inactive: 14.2% |
| COc1ccc(C(C)=O)cc1CSc1ncccn1 | inconclusive: 13 µM [activator, partial curve] | – |
| COc1ccc(S(=O)(=O)Nc2ccc3c(c2)OCCO3)cc1OC | inconclusive: 18.3 µM [activator, partial curve, poor fit] | – |
| COC(=O)c1sccc1NC(=O)c1cc(OC)c(OC)c(OC)c1 | inconclusive: 7.31 µM [inhibitor, partial curve] | – |
| O=C(COc1ccc(Cl)cc1Cl)NCc1ccncc1 | – | inactive: -18.4% |
| C[C@H]1[C@H](C)CC[C@]2(C)CC[C@]3(C)C(=CC(=O)C4[C@@]5(C)CC[C@H](O)C(C)(C)C5CC[C@]43C)[C@H]12 (stereo partly specified) | – | inactive: 15.7% |
| CCc1noc(C)c1C(=O)Nc1nc(-c2ccc(OC)cc2OC)cs1 | inconclusive: 25.9 µM [inhibitor, single point] | – |
| COc1ccc(NC(=O)c2cccc(S(=O)(=O)N3CCCCCC3)c2)cc1 | active: 20.6 µM | – |
| N#Cc1ccc(C(=O)Nc2nc(SCc3ccc(Cl)cc3)n[nH]2)cc1 | inconclusive: 0.92 µM [inhibitor, single point] | – |
| C#CCOc1ccc(C2C3=C(CC(C)(C)CC3=O)N(CC(=O)O)C3=C2C(=O)CC(C)(C)C3)cc1OC | – | inactive: 1.77% |
| Fc1cc(F)c2nc(N3CCOCC3)sc2c1 | inconclusive: 20.6 µM [activator, partial curve] | – |
| CCC(=O)NCCc1nc2cc(NC(=O)c3ccccc3Cl)ccc2n1C | inconclusive: 20.6 µM [activator, partial curve] | – |
| CC(C)OC(=O)c1cc(-c2ccc(C=O)o2)ccc1Cl | inconclusive: 29.1 µM [activator, single point] | – |
| Cc1occc1C(=O)N1CCN(S(=O)(=O)c2ccccc2)CC1 | – | inactive: 13.2% |
| CCOCC(=O)N1CCN(c2cccc(Cl)c2)CC1 | – | inactive: -3.53% |
| O=C(CN1CCCCC1)n1c2ccccc2c2ccccc21 | inconclusive: 16.4 µM [activator, partial curve, poor fit] | – |
| O=C(c1ccco1)N1C(=O)c2cccc3c(S(=O)(=O)N4CCCC4)ccc1c23 | inconclusive: 9.2 µM [activator, partial curve] | – |
| CCOc1ccc(Cl)cc1S(=O)(=O)N1CCC(C(=O)NCc2cccnc2)CC1 | – | inactive: 8.22% |
| CC(C)N(Cc1ccccc1)C(=O)COC(=O)c1cc(S(=O)(=O)N(C)C)ccc1N1CCCC1 | inconclusive: 16.4 µM [inhibitor, partial curve] | – |

5 structures out of the list, ordered by heavy-atom count, rising.

| Structure (SMILES) | Potency | activity change, negative = inhibition |
| --- | --- | --- |
| CC(C)(C)c1nc2cc(Cl)c([N+](=O)[O-])cc2o1 | – | inactive: 17% |
| CNc1nc(SCc2ccc(C)cc2)nc2c1CCCC2 | – | inactive: 6.2% |
| CCC(=O)N(CCc1ccccc1)Cc1cc2cccc(C)c2[nH]c1=O | inconclusive: 29.1 µM [inhibitor, single point] | – |
| CCOc1ccc(C(=O)COC(=O)Cc2n[nH]c(=O)c3ccccc23)cc1 | inconclusive: 5.17 µM [inhibitor, single point] | – |
| CCN(CC(=O)Nc1ccccc1OC)CC(=O)Nc1ccccc1-c1ccccc1 | inconclusive: 20.6 µM [inhibitor, single point] | – |

Carrying on.

| Structure (SMILES) | Potency | activity change, negative = inhibition |
| --- | --- | --- |
| Cc1cc2oc(=O)cc(CN(C)Cc3ccccc3F)c2cc1Cl | inconclusive: 20.6 µM [activator, partial curve] | – |
| CCC(=O)Oc1oc(-c2ccccc2)nc1C=Nc1ccccc1OC | – | inactive: -0.305% |
| CCN1CC(CN(C)Cc2cn(-c3ccc(C)cc3)nc2-c2cccc(C)c2)CC1=O (stereo unspecified) | inconclusive: 25.9 µM [inhibitor, single point] | – |
| COc1ccc(NC(=O)COc2ccccc2)cc1Cl | inconclusive: 32.6 µM [activator, partial curve, poor fit] | – |
| CC(=O)Nc1ccc(C(=O)CSc2nnnn2C(C)C)cc1 | inconclusive: 31.6 µM [activator, single point] | – |
| CC1(C)Cc2ccccc2-c2nnc(SCC(=O)Nc3ccc4c(c3)OCO4)n21 | – | inactive: 13.7% |
| COc1ccc(N2CC(C)Cn3c2nc2c3c(=O)n(Cc3ccccc3)c(=O)n2C)c(OC)c1 (stereo unspecified) | active: 18.3 µM | – |
| O=C(c1ccccc1)c1cnc(-c2ccc(Cl)cc2)s1 | inconclusive: 4.11 µM [activator, partial curve] | – |
| C/C(=N\Nc1nnc2c3ccccc3n(C)c2n1)c1ccc(C)o1 | active: 16.4 µM | – |
| COc1cccc(CN=CC2=C(O)CC(C)(C)CC2=O)c1OC | – | inactive: 14.8% |
| CCCCN(CCCC)S(=O)(=O)c1ccc(NC(=O)c2cccs2)cc1 | active: 23.1 µM | – |
| CC(=O)c1cc(-c2ccccc2)n(CCC(=O)NC2CCCC2)c1C | – | inactive: 10.6% |
| CCn1c(=O)cc(OCC(=O)NCCC(C)C)c2ccccc21 | inconclusive: 16.4 µM [activator, partial curve] | – |
| O=C(COc1ccc2c(C(F)(F)F)cc(=O)oc2c1)Nc1ccc(N2CCOCC2)cc1 | inconclusive: 32.6 µM [activator, partial curve, poor fit] | – |
| Cc1cc(C(=O)CN2C(=O)NC3(CCCc4sccc43)C2=O)c(C)n1-c1ccc(Cl)cc1 (stereo unspecified) | – | inactive: -27.4% |
| CCC(C)NC(=O)c1ccccc1NC(=O)c1ccc(CSc2ccc(C)cc2)cc1 (stereo unspecified) | – | inactive: 5.23% |
| CC[C@]12c3[nH]c4ccc(Cl)cc4c3CCN1C(=O)[C@@H](CC(=O)NCC13CC4CC(CC(C4)C1)C3)C[C@@H]2C(=O)N1CCN(C(=O)c2ccco2)CC1 | active: 20.6 µM | – |
| CCOc1ccc(NC(=O)CN(C)C(=O)CN2C(=O)C3CCCCC3C2=O)cc1OCC (stereo unspecified) | – | inactive: 8.64% |
| CCCN1CCN(C(=O)C2CCN(c3ncnc4c3nc3n4CCCCC3)CC2)CC1 | – | inactive: -8.44% |
| CCc1cc2c(COC(=O)c3cc(S(=O)(=O)N4CCOCC4)ccc3F)cc(=O)oc2cc1O | inconclusive: 17.8 µM [inhibitor, single point] | – |
| Cc1ccc(C)c(S(=O)(=O)N2CCN(Cc3ccc(O)c4ncccc34)CC2)c1 | inconclusive: 3.26 µM [inhibitor, single point] | – |
| COc1ccc(C(=O)NC(C)c2nnc(SCC(=O)Nc3nc4ccccc4s3)n2C)cc1 (stereo unspecified) | inconclusive: 23.1 µM [inhibitor, single point] | – |
| O=C(COC(=O)CCNS(=O)(=O)c1cccs1)Nc1cc(C(F)(F)F)ccc1Cl | inconclusive: 18.3 µM [activator, partial curve, poor fit] | – |
